Measured values reported in paper PMC10089214.
These are yes or no findings as the source states them, for the method shown. Binding seen in cells or lysates may run through a third protein. Some entries that bind do so weakly or less than the wild type.

By UniProt entry, the sequences of proteins in these tests, tags left out.
UniProt O14686: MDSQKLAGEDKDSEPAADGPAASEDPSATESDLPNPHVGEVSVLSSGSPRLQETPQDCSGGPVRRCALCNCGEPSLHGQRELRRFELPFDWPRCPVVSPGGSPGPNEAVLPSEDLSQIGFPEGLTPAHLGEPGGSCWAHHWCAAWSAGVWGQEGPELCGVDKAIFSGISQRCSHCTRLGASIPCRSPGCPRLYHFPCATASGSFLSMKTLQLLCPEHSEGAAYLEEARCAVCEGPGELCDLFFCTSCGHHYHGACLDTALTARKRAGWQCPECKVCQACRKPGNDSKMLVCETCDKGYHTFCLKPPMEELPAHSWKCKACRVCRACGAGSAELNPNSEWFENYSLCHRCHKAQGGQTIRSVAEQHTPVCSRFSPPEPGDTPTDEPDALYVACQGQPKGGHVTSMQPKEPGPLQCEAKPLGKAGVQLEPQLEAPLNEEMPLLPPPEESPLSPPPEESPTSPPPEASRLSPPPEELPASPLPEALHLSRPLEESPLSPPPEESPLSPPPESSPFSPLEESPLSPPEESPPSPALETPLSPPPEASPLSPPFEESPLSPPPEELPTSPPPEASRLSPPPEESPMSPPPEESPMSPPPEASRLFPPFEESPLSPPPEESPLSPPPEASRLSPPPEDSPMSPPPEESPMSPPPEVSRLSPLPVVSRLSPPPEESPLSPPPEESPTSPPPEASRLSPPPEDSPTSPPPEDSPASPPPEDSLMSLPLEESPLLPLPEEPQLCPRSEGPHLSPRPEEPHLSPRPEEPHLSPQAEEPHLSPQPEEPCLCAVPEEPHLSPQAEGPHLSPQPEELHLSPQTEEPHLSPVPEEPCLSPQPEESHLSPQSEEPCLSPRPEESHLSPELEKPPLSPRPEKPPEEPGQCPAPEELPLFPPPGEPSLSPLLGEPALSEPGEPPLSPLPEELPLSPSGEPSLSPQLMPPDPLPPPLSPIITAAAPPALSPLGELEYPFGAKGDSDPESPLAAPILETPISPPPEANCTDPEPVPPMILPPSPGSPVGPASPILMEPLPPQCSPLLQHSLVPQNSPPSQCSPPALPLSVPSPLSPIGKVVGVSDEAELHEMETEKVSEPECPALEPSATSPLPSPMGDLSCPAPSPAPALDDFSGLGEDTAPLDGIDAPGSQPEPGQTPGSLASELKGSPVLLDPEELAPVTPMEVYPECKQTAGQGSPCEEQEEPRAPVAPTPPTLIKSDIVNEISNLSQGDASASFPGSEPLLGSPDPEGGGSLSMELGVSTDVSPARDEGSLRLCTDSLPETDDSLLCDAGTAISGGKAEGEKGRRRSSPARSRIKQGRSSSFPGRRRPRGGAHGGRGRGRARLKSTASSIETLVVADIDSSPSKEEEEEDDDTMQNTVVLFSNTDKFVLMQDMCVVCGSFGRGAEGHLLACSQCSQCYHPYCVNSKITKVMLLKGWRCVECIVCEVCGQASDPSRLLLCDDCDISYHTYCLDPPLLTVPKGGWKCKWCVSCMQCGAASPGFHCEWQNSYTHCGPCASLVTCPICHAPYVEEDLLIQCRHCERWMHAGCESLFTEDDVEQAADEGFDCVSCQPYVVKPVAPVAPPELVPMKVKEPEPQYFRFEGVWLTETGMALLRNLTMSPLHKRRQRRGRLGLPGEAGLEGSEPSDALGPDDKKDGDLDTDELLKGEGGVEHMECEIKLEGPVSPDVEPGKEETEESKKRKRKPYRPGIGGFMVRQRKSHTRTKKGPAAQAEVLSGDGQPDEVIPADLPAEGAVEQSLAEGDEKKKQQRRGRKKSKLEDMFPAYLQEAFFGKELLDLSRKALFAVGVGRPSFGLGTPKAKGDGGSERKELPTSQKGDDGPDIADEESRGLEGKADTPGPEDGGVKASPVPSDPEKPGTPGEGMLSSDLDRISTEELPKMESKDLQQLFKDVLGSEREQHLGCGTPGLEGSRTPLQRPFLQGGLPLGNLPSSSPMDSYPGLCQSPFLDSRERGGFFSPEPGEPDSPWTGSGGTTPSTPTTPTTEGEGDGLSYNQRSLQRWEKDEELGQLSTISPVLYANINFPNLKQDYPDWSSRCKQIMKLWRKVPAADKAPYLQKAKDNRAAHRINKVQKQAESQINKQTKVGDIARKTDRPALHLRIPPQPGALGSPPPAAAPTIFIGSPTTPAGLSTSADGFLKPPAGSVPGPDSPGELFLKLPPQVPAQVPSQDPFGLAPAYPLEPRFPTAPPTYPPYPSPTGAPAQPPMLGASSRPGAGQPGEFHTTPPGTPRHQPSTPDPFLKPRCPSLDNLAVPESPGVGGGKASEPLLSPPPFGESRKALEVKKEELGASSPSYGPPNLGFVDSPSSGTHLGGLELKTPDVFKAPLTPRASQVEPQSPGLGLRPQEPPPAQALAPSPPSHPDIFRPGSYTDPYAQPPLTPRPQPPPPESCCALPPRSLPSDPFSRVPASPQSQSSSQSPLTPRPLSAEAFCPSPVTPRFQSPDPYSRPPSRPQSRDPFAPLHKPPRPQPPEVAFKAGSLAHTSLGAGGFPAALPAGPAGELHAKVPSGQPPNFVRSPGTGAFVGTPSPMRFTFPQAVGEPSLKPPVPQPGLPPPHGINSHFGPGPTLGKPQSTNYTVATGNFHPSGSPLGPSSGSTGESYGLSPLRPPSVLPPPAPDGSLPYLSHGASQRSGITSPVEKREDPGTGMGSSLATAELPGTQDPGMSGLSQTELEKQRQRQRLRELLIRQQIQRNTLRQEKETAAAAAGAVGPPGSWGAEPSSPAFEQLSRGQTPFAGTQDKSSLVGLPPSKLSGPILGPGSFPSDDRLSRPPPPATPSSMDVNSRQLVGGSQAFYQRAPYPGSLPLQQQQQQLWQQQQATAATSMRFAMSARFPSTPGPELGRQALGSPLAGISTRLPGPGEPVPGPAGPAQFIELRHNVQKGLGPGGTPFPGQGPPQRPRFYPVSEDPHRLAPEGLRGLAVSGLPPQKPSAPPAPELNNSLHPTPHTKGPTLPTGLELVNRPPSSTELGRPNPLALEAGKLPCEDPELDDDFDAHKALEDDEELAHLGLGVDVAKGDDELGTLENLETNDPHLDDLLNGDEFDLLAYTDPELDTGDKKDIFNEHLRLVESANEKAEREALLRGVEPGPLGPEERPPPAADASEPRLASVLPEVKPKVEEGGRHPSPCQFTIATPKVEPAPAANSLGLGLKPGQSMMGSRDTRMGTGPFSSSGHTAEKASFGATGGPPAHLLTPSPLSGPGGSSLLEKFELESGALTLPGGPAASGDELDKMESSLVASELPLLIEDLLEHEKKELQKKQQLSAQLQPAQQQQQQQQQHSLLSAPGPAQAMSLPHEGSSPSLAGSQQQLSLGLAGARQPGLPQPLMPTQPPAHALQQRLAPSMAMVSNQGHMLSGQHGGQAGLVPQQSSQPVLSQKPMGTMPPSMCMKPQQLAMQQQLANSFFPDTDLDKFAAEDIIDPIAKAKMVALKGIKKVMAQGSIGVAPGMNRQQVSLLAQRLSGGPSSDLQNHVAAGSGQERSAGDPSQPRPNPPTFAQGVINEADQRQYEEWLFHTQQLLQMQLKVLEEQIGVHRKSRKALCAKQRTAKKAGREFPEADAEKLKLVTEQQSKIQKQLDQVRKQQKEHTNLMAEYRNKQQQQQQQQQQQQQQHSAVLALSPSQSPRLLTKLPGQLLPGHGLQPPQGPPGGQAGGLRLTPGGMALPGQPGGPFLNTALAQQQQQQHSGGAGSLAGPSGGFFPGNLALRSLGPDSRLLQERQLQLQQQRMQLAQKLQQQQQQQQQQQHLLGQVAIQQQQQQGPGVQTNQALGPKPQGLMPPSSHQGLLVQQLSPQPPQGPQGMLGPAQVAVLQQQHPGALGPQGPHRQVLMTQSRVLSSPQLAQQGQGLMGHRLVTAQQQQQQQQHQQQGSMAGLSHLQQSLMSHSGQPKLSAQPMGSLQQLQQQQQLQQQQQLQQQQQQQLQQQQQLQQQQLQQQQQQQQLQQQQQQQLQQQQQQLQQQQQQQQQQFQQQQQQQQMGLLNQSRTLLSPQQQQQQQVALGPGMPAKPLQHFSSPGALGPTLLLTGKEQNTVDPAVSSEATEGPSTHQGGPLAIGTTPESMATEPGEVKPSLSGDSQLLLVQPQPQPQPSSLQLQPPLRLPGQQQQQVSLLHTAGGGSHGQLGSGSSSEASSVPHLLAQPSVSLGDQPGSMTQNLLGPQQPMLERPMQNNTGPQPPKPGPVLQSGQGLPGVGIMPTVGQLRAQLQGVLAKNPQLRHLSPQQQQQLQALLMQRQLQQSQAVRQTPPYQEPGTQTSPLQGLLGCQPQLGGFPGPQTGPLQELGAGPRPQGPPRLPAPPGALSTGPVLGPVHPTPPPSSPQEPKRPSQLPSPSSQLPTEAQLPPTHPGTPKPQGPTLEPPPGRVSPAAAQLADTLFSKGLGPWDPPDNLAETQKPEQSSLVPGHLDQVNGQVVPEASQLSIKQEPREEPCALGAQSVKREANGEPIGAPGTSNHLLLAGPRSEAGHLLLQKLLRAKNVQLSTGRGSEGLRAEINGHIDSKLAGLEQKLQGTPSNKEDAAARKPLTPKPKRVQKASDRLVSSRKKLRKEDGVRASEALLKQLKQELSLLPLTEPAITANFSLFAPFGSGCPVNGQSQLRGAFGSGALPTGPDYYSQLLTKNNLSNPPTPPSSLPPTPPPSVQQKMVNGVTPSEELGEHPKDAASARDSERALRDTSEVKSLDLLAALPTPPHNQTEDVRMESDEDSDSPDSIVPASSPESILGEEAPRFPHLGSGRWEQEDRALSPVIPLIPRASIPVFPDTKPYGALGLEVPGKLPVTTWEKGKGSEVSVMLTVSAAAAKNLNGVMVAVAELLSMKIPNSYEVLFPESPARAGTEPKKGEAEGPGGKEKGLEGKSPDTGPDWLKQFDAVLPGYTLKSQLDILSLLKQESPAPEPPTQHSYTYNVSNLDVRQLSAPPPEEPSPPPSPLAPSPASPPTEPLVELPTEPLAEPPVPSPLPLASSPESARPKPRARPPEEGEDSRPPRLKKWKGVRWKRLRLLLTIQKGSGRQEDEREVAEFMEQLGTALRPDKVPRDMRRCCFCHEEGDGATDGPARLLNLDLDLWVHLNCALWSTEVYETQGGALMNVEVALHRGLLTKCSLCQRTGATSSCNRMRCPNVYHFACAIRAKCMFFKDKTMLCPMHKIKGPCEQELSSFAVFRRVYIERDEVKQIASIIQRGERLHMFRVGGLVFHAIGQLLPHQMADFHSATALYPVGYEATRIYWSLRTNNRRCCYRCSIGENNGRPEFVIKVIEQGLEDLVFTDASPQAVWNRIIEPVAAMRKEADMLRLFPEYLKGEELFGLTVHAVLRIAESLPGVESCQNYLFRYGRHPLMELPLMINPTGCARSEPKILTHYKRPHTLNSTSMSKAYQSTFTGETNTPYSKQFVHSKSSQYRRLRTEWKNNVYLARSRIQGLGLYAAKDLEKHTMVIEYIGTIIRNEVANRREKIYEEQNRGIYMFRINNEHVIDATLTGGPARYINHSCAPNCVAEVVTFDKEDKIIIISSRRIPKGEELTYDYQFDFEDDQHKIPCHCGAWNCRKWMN

Target: KMT2D (endogenous) (human (endogenous in SUDHL4, LY7 and tonsil B cells)) (UniProt O14686)
Assay: co-IP; endogenous proteins in nuclear extracts of SUDHL4 and LY7 DLBCL cells; IP with anti-KMT2D antibody (or control IgG) and reverse IP with anti-CREBBP antibody, overnight at 4 °C; immunoblot

- binding: binds
Substance: CREBBP (endogenous) (from UniProt Q92793 1-2442) (enzyme)
